PubChem BioAssay AID493014 (National Center for Advancing Translational Sciences (NCATS), 2011)
This is one part of the list. These are further read-outs of the screen, such as a control signal, another cell line or another target. No call is given for them. Most of these compounds were active or inconclusive in the main read-out, so they are no random draw. Words in brackets tell the shape of the fitted curve; partial curves, single points and poor fits give uncertain potencies.

Assay: qHTS Assay to Find Inhibitors of Chronic Active B-Cell Receptor Signaling
Conditions: ABC-DLBCL IkBa-CBG/CBR reporter, luminescence ratio (green luciferase fused to IkBa over red control in TMD8 lymphoma cells), 4 h
Procedure, shortened: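 TMD8 ABC-DLBCL cells carrying doxycycline-inducible green luciferase fused to IkappaBalpha plus unfused red luciferase were exposed to compounds (up to 46 uM) for 4 hrs at 37C. Activity came from the overlap-corrected green/red luminescence ratio.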

[1] = measured here: CBR red luminescence, cell number
[2] = measured here: IkBa-CBG green luminescence

Row | SMILES | AC50 [1] | AC50 [2]
1 | COc1ccc(S(=O)(=O)N(C)CC(=O)NCCc2ccccc2)cc1OC | 7.94 µM [rising, partial curve, poor fit] | –
2 | S=C(NCCN(C1CCCCC1)C1CCCC1)Nc1cccc(Cl)c1 | 35.5 µM [falling, single point] | –
3 | Oc1ccccc1N1CCN(Cc2ncc(-c3ccccc3)o2)CC1 | 22.4 µM [falling, single point] | –
4 | COc1cc2c(cc1[N+](=O)[O-])n(C(C)C)c(=O)n2C(C)C | 0.1 µM [rising, full curve, poor fit] | 15.8 µM [falling, partial curve, poor fit]
5 | COCCN(CCOC)C(=O)CCn1c(=O)oc2ccccc21 | 23.1 µM [rising, single point] | –
6 | Cc1ccc(CNC(=O)CCS(=O)(=O)c2ccc(Cl)cc2)cc1 | 6.51 µM [rising, single point] | –
7 | COC(=O)Nc1sccc1C(=O)Nc1sccc1C(=O)OC | 20.6 µM [rising, partial curve, poor fit] | –
8 | COc1cc(NC(=O)CCCc2c[nH]c3ccccc23)cc(OC)c1 | 16.4 µM [falling, partial curve] | –
9 | CCc1cccc(CC)c1NC(=O)C1CC(=O)N(c2ccc3c(c2)OCCO3)C1 (configuration not stated) | 1.46 µM [rising, full curve] | –
10 | CCn1c(N)c(C(=O)NCCCOC)sc1=S | 5.62 µM [rising, single point] | –
11 | Cc1noc(C)c1S(=O)(=O)N1CCC(C(=O)N2CCN(c3ccccc3Cl)CC2)CC1 | 5.17 µM [rising, partial curve, poor fit] | –
12 | O=C(CC(c1ccccc1)c1ccccc1)Nc1ccc(O)cc1 | 10 µM [falling, partial curve] | –
13 | CCOC(=O)CNC(=O)Cn1cnc2c(nnn2-c2cccc(Cl)c2)c1=O | 16.4 µM [rising, partial curve, poor fit] | –
14 | CN1C(=O)/C(=C/c2cccc(Cl)c2)Sc2ccc(C(=O)NCc3cccnc3)cc21 | 35.5 µM [falling, single point] | –
15 | CN(C)c1ccc(NC(=O)c2ccc3nsnc3c2)cc1 | 2.31 µM [falling, partial curve] | –
16 | O=C(N/N=C/c1sc(=O)[nH]c1-[n+]1ccc2ccccc2c1)c1ccccc1[O-] | 2.82 µM [falling, full curve] | –
17 | CCc1cccc(CC)c1NC(=O)CO/N=C(\C)c1cccs1 | 23.1 µM [rising, single point] | –
18 | Cc1cc(=O)[nH]c(-n2nc(C)cc2C)n1 | 35.5 µM [rising, single point] | 31.6 µM [falling, single point]
19 | COc1ccccc1NC(=O)N1CCN(c2ncccn2)CC1 | 0.0291 µM [rising, full curve, poor fit] | –
20 | O=C(/C=C/c1ccc2c(c1)OCO2)Nc1cccnc1 | 11.2 µM [falling, partial curve] | –
21 | COc1cc(/C=N/NC(=O)c2ccc(Cn3cc([N+](=O)[O-])cn3)o2)cc(Br)c1O | 17.8 µM [falling, partial curve, poor fit] | –

Row | SMILES | AC50 [1] | AC50 [2]
22 | CC1=NNC(=O)C1CC(=O)N/N=C/c1cccs1 (configuration not stated) | 3.16 µM [falling, single point] | –
23 | COc1cccc(C(=O)Nc2nnc(S(=O)(=O)N3CCOCC3)s2)c1 | 17.8 µM [rising, single point] | –
24 | Cc1sc(NC(=O)c2ccco2)c(C(c2ccc(F)cc2)N2CCN(C)CC2)c1C (configuration not stated) | 11.2 µM [falling, partial curve, poor fit] | –
25 | O=C(c1cccc(NS(=O)(=O)c2ccc(Br)cc2)c1)N1CCN(c2ccccc2O)CC1 | 29.1 µM [falling, single point] | –
26 | Cn1c(CCN2CCCCC2)nc2cc(NC(=O)COc3ccc([N+](=O)[O-])cc3)ccc21 | 1.26 µM [falling, full curve, poor fit] | –
27 | Cc1ccccc1N(Cc1nnc2n1CCCCC2)C(=O)Nc1ccccc1 | 35.5 µM [rising, single point] | –
28 | CN(CC(=O)N1CCc2ccccc21)S(=O)(=O)c1ccc(Br)s1 | 29.1 µM [rising, partial curve, poor fit] | –
29 | CCCOC(=O)c1ccc(Oc2c(-c3ccc(OC)cc3O)n[nH]c2C)cc1 | 35.5 µM [falling, single point] | –
30 | CCOc1cc(/C=N/Nc2ccc(C(=O)O)cc2)ccc1OC(=O)c1ccccc1C | 2.24 µM [falling, partial curve] | –
31 | CC(=O)N/N=C(\C)CC(=O)NC(C)(C)C | 6.31 µM [rising, single point] | –
32 | O=C(c1cc(-c2ccccc2O)on1)N1CCCC1 | 11.2 µM [falling, single point] | –
33 | CC(=O)NC(=S)Nc1ccc(NC(=O)c2cccnc2)cc1 | 1.12 µM [rising, full curve, poor fit] | –
34 | Cc1ccc(S(=O)(=O)N2CCCC2C(=O)Nc2nc3ccccc3s2)cc1 (configuration not stated) | 5.17 µM [falling, partial curve, poor fit] | –
35 | COc1ccccc1N1CCN(C2CCN(S(=O)(=O)c3ccc(NC(C)=O)cc3)CC2)CC1 | 6.31 µM [falling, single point] | –
36 | CCOC(=O)CSc1nc2ccc(N)cc2s1 | 20.6 µM [rising, single point] | –
37 | COc1ccc(-c2nnc(SCCOc3cccc(C)c3)n2N)cc1 | 0.00517 µM [rising, full curve, poor fit] | –
38 | COc1ccc(S(=O)(=O)N(C)C[C@H]2Oc3c(cccc3N(C)C)C(=O)N([C@H](C)CO)C[C@@H]2C)cc1 | 5.17 µM [rising, full curve, poor fit] | –
39 | COc1ccc(OC)c(CCNC(=O)CN2C(=O)CC(C)(C)S(=O)(=O)c3ccccc32)c1 | 0.517 µM [rising, full curve, poor fit] | –
40 | COc1ccc(-c2cc(=Nc3ccc(C)cc3)c3ccccc3o2)cc1 | 7.08 µM [rising, full curve] | –
41 | COc1ccc(Cc2nnc(SCc3nc4ccccc4c(=O)[nH]3)o2)cc1 | 3.66 µM [rising, full curve, poor fit] | –
42 | CC(C)NC(=S)NN=C1CCCCCCCCCCC1 | 11.2 µM [falling, partial curve, poor fit] | 35.5 µM [falling, single point]

Copied from above: compounds 6–20
Row | SMILES | AC50 [1] | AC50 [2]
6 | Cc1ccc(CNC(=O)CCS(=O)(=O)c2ccc(Cl)cc2)cc1 | 6.51 µM [rising, single point] | –
7 | COC(=O)Nc1sccc1C(=O)Nc1sccc1C(=O)OC | 20.6 µM [rising, partial curve, poor fit] | –
8 | COc1cc(NC(=O)CCCc2c[nH]c3ccccc23)cc(OC)c1 | 16.4 µM [falling, partial curve] | –
9 | CCc1cccc(CC)c1NC(=O)C1CC(=O)N(c2ccc3c(c2)OCCO3)C1 (configuration not stated) | 1.46 µM [rising, full curve] | –
10 | CCn1c(N)c(C(=O)NCCCOC)sc1=S | 5.62 µM [rising, single point] | –
11 | Cc1noc(C)c1S(=O)(=O)N1CCC(C(=O)N2CCN(c3ccccc3Cl)CC2)CC1 | 5.17 µM [rising, partial curve, poor fit] | –
12 | O=C(CC(c1ccccc1)c1ccccc1)Nc1ccc(O)cc1 | 10 µM [falling, partial curve] | –
13 | CCOC(=O)CNC(=O)Cn1cnc2c(nnn2-c2cccc(Cl)c2)c1=O | 16.4 µM [rising, partial curve, poor fit] | –
14 | CN1C(=O)/C(=C/c2cccc(Cl)c2)Sc2ccc(C(=O)NCc3cccnc3)cc21 | 35.5 µM [falling, single point] | –
15 | CN(C)c1ccc(NC(=O)c2ccc3nsnc3c2)cc1 | 2.31 µM [falling, partial curve] | –
16 | O=C(N/N=C/c1sc(=O)[nH]c1-[n+]1ccc2ccccc2c1)c1ccccc1[O-] | 2.82 µM [falling, full curve] | –
17 | CCc1cccc(CC)c1NC(=O)CO/N=C(\C)c1cccs1 | 23.1 µM [rising, single point] | –
18 | Cc1cc(=O)[nH]c(-n2nc(C)cc2C)n1 | 35.5 µM [rising, single point] | 31.6 µM [falling, single point]
19 | COc1ccccc1NC(=O)N1CCN(c2ncccn2)CC1 | 0.0291 µM [rising, full curve, poor fit] | –
20 | O=C(/C=C/c1ccc2c(c1)OCO2)Nc1cccnc1 | 11.2 µM [falling, partial curve] | –

Next entries follow:

Row | SMILES | AC50 [1] | AC50 [2]
43 | CCOC(=O)c1cc(-c2ccccc2)n(CCC(=O)NCCc2cccc(C)c2)c1C | 35.5 µM [falling, single point] | –
44 | COc1cccc(NC(=O)Nc2ccncc2)c1 | 35.5 µM [falling, single point] | –
45 | CCCCOC(=O)Nc1nc2ccc(OC)cc2s1 | 0.231 µM [rising, full curve, poor fit] | –
46 | COc1ccc(CCN(C)CCC(=O)Nc2ccc(C)cc2)cc1OC | 20.6 µM [rising, partial curve] | –
47 | CCOC(=O)c1c(NC(=O)COC(=O)c2cc(OC)c(OC)cc2[N+](=O)[O-])sc(C)c1CC | 0.651 µM [rising, full curve] | –
48 | O=C(CNC(=O)c1ccc2ccccc2c1)Nc1ncccc1O | 9.2 µM [falling, partial curve] | –
49 | Brc1ccc2ncnc(Nc3ccc(N4CCOCC4)cc3)c2c1 | 7.08 µM [falling, partial curve, poor fit] | –
50 | COc1ccc(C(CC(=O)c2ccc(O)cc2)S(=O)(=O)c2ccc(C)cc2)cc1 (configuration not stated) | 20 µM [falling, partial curve, poor fit] | –
51 | Cc1cc(NC(=O)Cc2ccccc2)nc2c1c(=O)oc1ccccc12 | 1.3 µM [falling, partial curve, poor fit] | –
52 | COC(=O)c1c(NC(=O)c2ccc(OC(C)C)cc2)sc2c1CC(C)(C)NC2(C)C | 22.4 µM [rising, single point] | –
53 | COc1ccc(-c2cc(C(=O)Nc3ccc(S(N)(=O)=O)cc3)c3ccccc3n2)cc1OC | 0.631 µM [rising, full curve, poor fit] | –
54 | CCN1C(=O)/C(=C\N2CCCc3ccccc32)SC1=S | 1.03 µM [rising, full curve, poor fit] | –
55 | CCOc1ccc(S(=O)(=O)N2CCCCC2)c2ccccc12 | 3.16 µM [rising, partial curve, poor fit] | –
56 | COc1ccc(-c2nnc3sc(CCN4C(=O)c5ccccc5C4=O)nn23)cc1 | 15.8 µM [rising, partial curve, poor fit] | –
57 | O=C(c1ccco1)N1CCN(S(=O)(=O)c2ccc(Cl)cc2)CC1 | 8.91 µM [falling, full curve, poor fit] | –
58 | COc1ccccc1-c1nc(C#N)c(N2CCN(Cc3ccccc3)CC2)o1 | 29.1 µM [falling, single point] | –
59 | CC(C)C[C@H](NC(=O)Nc1ccc2c(c1)OCCO2)C(=O)O | 0.794 µM [rising, full curve, poor fit] | –
60 | Cc1cc(=O)oc2c1c(C)nn2-c1ccc(Br)cc1 | 0.224 µM [rising, full curve, poor fit] | –
61 | CCOC(=O)c1ccccc1NC1c2ccccc2C(=O)N1C1CCN(C(=O)OCC)CC1 (configuration not stated) | 29.1 µM [falling, single point] | 32.6 µM [rising, partial curve, poor fit]
62 | Cn1c(=O)n(C)c2cc(N3CCCC3)c(NC(=O)c3cccc(F)c3)cc21 | 3.98 µM [rising, partial curve, poor fit] | –
63 | CN(CCc1ccccn1)C(=O)c1nn2c(C(F)(F)F)cc(-c3ccco3)nc2c1Cl | 22.4 µM [falling, partial curve] | –
